# Data reported in the supplement of paper PMC9135407.
# Several values for one entry are separate records, joined by “and”; a condition that tells them apart may be missing. Equal entries are not always repeated. Structures can show the parent of a compound that is named as a salt. ± gives the standard deviation of the averaged measurements. This is one part of the list. Baselines shift from plate to plate; read single values as rough.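 Primary human stellate myofibroblasts activated in culture; inactivation shown by regained lipid droplets. Readout: fraction of Hoechst-counted cells exceeding a per-plate Bodipy threshold, duplicate wells, each plate with DMSO negative and nortriptyline positive controls. Hits: control-normalized score beyond the plate's top-tenth-percentile nortriptyline wells, or among its three best wells. Final well concentrations unstated.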
# System: primary human hepatic stellate cells (donor 1)
# Experiment: percent Bodipy-positive cells; higher = more lipid droplet accumulation
# Conditions: 48 h
# [1] = library stock concentration: 10 mM
# [2] = library stock concentration: 80 uM
# [3] = library stock concentration: 400 uM
# [4] = library stock concentration: 2 mM
# [5] = library stock concentration: 3.33 mM
# [6] = library stock concentration: 1 mM
structure (smiles),measurement,setting,value
NCCCCNCCCN [Spermidine trihydrochloride],percent Bodipy-positive cells,[1],8.14% and 10.7%
Nc1ncn([C@H]2C[C@H](O)[C@@H](CO)O2)c(=O)n1 [Decitabine],percent Bodipy-positive cells,[2],49.2 ± 5.1%
same,percent Bodipy-positive cells,[3],35.7 ± 3.1%
same,percent Bodipy-positive cells,[4],40.2 ± 7.6%
same,percent Bodipy-positive cells,[5],9.95 ± 0.71%
O=C(Cc1ccc(-c2ccc(OCCN3CCOCC3)cc2)cn1)NCc1ccccc1,percent Bodipy-positive cells,[2],19 ± 2.4%
same,percent Bodipy-positive cells,[3],28.7 ± 5%
same,percent Bodipy-positive cells,[4],25.3 ± 12%
same,percent Bodipy-positive cells,[5],32.9 ± 9.3%
same,percent Bodipy-positive cells,[1],52.6% and 38.3%
O=c1cc(-c2ccc(O)c(O)c2)oc2cc(O)cc(O)c12 [Luteolin],percent Bodipy-positive cells,,16 ± 3.4%
same,percent Bodipy-positive cells,[6],9.83 ± 3.1%
same,percent Bodipy-positive cells,[5],12.1 ± 2.8%
same,percent Bodipy-positive cells,[1],41.6 ± 1.1%
CC(=O)Nc1ccc(NC(=S)NC(=O)c2ccc(C(C)(C)C)cc2)cc1 [Tenovin-1],percent Bodipy-positive cells,[6],9.6 ± 2%
N#Cc1c(C2CCNCC2)cc(-c2c(O)cccc2OCC2CC2)nc1N,percent Bodipy-positive cells,[2],10.1 ± 0.28%
same,percent Bodipy-positive cells,[3],8.53 ± 1.2%
same,percent Bodipy-positive cells,[4],33.1 ± 2.5%
N#Cc1c(C2CCNCC2)cc(-c2c(O)cccc2OCC2CC2)nc1N [IKK-2 Inhibitor VIII],percent Bodipy-positive cells,[5],32.5 ± 5%
Cl.Clc1ccc(Cn2c(CN3CCCC3)nc3ccccc32)cc1 [Clemizole hydrochloride],percent Bodipy-positive cells,[1],94.06 ± 0.31%
CC(C)N(CCCNC(=O)Nc1ccc(C(C)(C)C)cc1)C[C@H]1O[C@@H](n2ccc3c(N)ncnc32)[C@H](O)[C@@H]1O,percent Bodipy-positive cells,[5],53.6 ± 2.4%
same,percent Bodipy-positive cells,[1],77.8 ± 7.6%
CNc1nccc(-c2cccnc2Oc2cc(C(=O)Nc3cccc(C(F)(F)F)c3)ccc2C)n1,percent Bodipy-positive cells,[3],22.6 ± 3%
same,percent Bodipy-positive cells,[4],19.4 ± 7.2%
C[C@]12CC[C@@H]3c4ccc(O)cc4CC[C@H]3[C@@H]1CC[C@@H]2OC(=O)CCC1CCCC1 [Estradiol Cypionate],percent Bodipy-positive cells,[5],8.25 ± 0.79%
same,percent Bodipy-positive cells,[1],59.7 ± 11%
C[C@]12CC[C@@H]3c4ccc(O)cc4CC[C@H]3[C@@H]1CC[C@@H]2OC(=O)CCC1CCCC1 [Estradiol cypionate],percent Bodipy-positive cells,library stock concentration: 5 mM,7.19 ± 9%
same,percent Bodipy-positive cells,[1],9.41 ± 2%
CCS(=O)(=O)Nc1ccc2[nH]c(O)c(C(=Nc3ccc(CN4CCCCC4)cc3)c3ccccc3)c2c1 [Hesperadin],percent Bodipy-positive cells,[5],20.96 ± 0.17%
same,percent Bodipy-positive cells,[1],84.7 ± 3.9%
Cc1cc(Nc2ccc(NC(=O)c3ccc(Nc4ccnc5ccccc45)cc3)cc2)nc(N)n1,percent Bodipy-positive cells,[5],99.2 ± 1.2%
same,percent Bodipy-positive cells,[1],91 ± 8.8%
CCC(Cc1c(I)cc(I)c(N)c1I)C(=O)O (stereo not given) [Iopanic acid],percent Bodipy-positive cells,library stock concentration: 3.5 mM,7.99 ± 4.1%
same,percent Bodipy-positive cells,[1],47.1 ± 21%
CCC(Cc1c(I)cc(I)c(N)c1I)C(=O)O (stereo not given) [Iopanoic acid],percent Bodipy-positive cells,,9.42 ± 0.36%
CCC(NC(C)C)C(O)c1ccc(O)c(O)c1 (stereo not given) [Isoetharine mesylate salt],percent Bodipy-positive cells,,8.2 ± 0.88%
CCC(NC(C)C)C(O)c1ccc(O)c(O)c1 (stereo not given) [Isoetharine mesylate],percent Bodipy-positive cells,library stock concentration: 6 mM,13.8 ± 12%
CCC(NC(C)C)C(O)c1ccc(O)c(O)c1 (stereo not given) [Isotharine mesylate],percent Bodipy-positive cells,[1],41.2 ± 0.87%
CNC(CC(=O)O)C(=O)O [NMDA (N-Methyl-D-aspartic acid)],percent Bodipy-positive cells,[5],5.83 ± 1.1%
same,percent Bodipy-positive cells,[1],26.9 ± 7.1%

# Two entries from above, with bars between the fields.
structure (smiles) | measurement | setting | value
N#Cc1c(C2CCNCC2)cc(-c2c(O)cccc2OCC2CC2)nc1N | percent Bodipy-positive cells | [4] | 33.1 ± 2.5%
Cc1cc(Nc2ccc(NC(=O)c3ccc(Nc4ccnc5ccccc45)cc3)cc2)nc(N)n1 | percent Bodipy-positive cells | [5] | 99.2 ± 1.2%
